Results are given in words; binding and its absence hold for the method and conditions named. In cells and extracts the contact can be indirect. Binding can be weak; no strength is given.
Target: GST-Byr2 (RBD), Ras Binding Domain from S. pombe Byr2 (S. pombe) (UniProt P28829)
Test: pull-down; 0.8 mg lysate of AX2 or HSB61 cells (pulsed with cAMP for 6 h or 10 h, stimulated with 200 nM cAMP) incubated with 100 ug GST-Byr2 (RBD) at 4°C for 1 h in HK-LB (sodium phosphate pH 7.2, 1% Triton X-100, 10% glycerol, 150 mM NaCl, 10 mM MgCl2); beads washed three times; blot with RasC or RasG antibody; only the target purified

Sequences of proteins named here, by UniProt entry; tags and fusion partners are left off. A change or cut given only in a name is not applied to a line headed by its entry.
UniProt P28829: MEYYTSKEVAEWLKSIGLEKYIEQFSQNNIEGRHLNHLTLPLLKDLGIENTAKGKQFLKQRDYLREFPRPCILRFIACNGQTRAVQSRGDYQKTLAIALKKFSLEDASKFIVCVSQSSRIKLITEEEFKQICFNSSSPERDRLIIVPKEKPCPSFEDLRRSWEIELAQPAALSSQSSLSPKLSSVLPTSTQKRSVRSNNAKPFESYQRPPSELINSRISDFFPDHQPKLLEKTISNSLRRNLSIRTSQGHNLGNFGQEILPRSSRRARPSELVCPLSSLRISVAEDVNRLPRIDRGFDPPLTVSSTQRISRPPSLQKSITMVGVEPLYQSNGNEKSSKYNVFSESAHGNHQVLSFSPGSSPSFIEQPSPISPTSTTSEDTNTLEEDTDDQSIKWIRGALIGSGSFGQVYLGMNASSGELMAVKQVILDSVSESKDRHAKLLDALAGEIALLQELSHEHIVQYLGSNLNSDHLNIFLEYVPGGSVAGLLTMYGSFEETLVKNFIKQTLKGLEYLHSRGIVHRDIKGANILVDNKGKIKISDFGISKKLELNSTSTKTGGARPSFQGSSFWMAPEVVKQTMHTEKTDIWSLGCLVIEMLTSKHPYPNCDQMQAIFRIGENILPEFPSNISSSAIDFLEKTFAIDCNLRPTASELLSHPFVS
UniProt P15064: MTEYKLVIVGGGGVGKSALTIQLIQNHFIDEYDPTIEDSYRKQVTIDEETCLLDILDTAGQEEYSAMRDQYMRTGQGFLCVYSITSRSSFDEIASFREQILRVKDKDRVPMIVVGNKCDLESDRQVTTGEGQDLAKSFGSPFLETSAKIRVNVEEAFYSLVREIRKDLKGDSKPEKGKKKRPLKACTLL

| binding | Molecule |
| --- | --- |
| binds | RasG (activated, GTP-bound) (from UniProt P15064 1-189) |
| binds | RasC (activated, GTP-bound) (protein, UniProt P32253 1-189) MSKLLKLVIVGDGGVGKSALTIQLTQNQFIAEYDPTIENSYRKQVNIDEEVYMLDILDTAGQEEYSAMRDQYIRSGRGFLIVYSIISRASFEAVTTFREQILRVKDLSTYPIVIIGNKADLPDKDRKVPPMEGKELAKSFGAPFLETSAKSRVNVEEAFFTLVREIKRWNQNPQNEEMLPPKKRGCIIL |

Reference: paper PMC1325028
